Results on 39 sequences are retold here after PMC7862700.

This is a selection; strong and weak results do not stand in their true shares. At the low end of the ranking, values are background and their order means little.

The assay has as its target T1, ELK1 (UniProt P19419).
T1 sequence: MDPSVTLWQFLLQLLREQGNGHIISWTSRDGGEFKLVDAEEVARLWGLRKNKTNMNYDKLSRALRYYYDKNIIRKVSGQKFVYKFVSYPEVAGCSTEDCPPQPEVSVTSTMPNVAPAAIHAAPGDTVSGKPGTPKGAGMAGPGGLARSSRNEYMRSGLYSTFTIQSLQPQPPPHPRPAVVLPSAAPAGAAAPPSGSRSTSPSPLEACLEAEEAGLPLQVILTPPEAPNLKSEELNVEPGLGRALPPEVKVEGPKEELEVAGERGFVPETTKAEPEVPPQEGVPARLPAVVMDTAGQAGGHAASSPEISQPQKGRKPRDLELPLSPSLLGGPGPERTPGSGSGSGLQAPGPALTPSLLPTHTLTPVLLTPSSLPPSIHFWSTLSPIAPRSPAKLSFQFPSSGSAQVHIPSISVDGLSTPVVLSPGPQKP
Put plainly: DAPPL (digital affinity profiling via proximity ligation, sequencing). Particulars: 10 mM Tris-HCl pH 7.5, 50 mM NaCl, 1 mM DTT, 4% glycerol, room temperature, 30 min; GST-TFs on glutathione beads, 16-mer random dsDNA library, 0.1% …; high values mean tight binding; double strand, one strand shown; scale: fold enrichment (6-mer frequency, TF over GST control).
In the case of CCTGCA, the binding signal is 1.3.

In turn, AGCCCC displayed a binding signal of 1.01.

As for ATGATC, the binding signal is 1.17.

In the case of ATGGAT, the binding signal was 1.11.

Sequence ACCGGA returned a binding signal of 3.55.

In turn, TACTGG registered a binding signal of 0.948.

For the sequence GTTTAA, the binding signal is 1.19.

In turn, ACCGTC displayed a binding signal of 1.21.

TCTCCC returned a binding signal of 1.68.

CTCGCC had a binding signal of 1.38.

On to ATGGCC, for which the binding signal worked out at 1.42.

TGTGCT had a binding signal of 1.23.

CGCGTC returned a binding signal of 1.24.

Sequence CTCTGC displayed a binding signal of 1.6.

On to ATACCG, for which the binding signal came to 1.

With TACCGC, the binding signal was 1.07.

ATTCCC registered a binding signal of 1.32.

In turn, AAATCC came in with a binding signal of 1.66.

On to GTCTTT, for which the binding signal stood at 1.21.

The sequence TTCTGC came in with a binding signal of 1.49.

Sequence CACATT returned a binding signal of 1.16.

CTAATC: the binding signal came to 1.39.

With TTCAAG, the binding signal turned out to be 1.22.

With TATAGT, the binding signal turned out to be 1.1.

As for GATATC, the binding signal worked out at 1.6.

In turn, ATATGT showed a binding signal of 1.08.

CTCCCG came in with a binding signal of 1.56.

Take CGACAC: the binding signal is 1.14.

In turn, CCTCTA gave a binding signal of 1.48.

As to TACTGC, the binding signal worked out at 1.22.

CTACTT registered a binding signal of 1.77.

In the case of CTGTAA, the binding signal was found to be 0.956.

With GTATTT, the binding signal is 1.61.

The sequence TTTATG had a binding signal of 1.21.

CGCTTT registered a binding signal of 1.1.

Turning to CGATCT, the binding signal came to 1.25.

CGCCGA displayed a binding signal of 1.2.

For GTTAAC, the binding signal came out at 1.22.

Consider GCGCTC, for which the binding signal came to 1.2.
